According to patent publication US12612394B2, “Herbicidal malonamides” (BASF SE, priority 2020, dated 2026):
Some entries share one result that the patent states for a list of compounds.

Legend:
[1] = system: ABUTH; test: greenhouse experiment, post-emergence treatment; assay type: in vivo, Abutilon theophrasti; conditions: post-emergence method
[2] = system: AMARE; test: greenhouse experiment, post-emergence treatment; assay type: in vivo, Amaranthus retroflexus; conditions: post-emergence method
From the text: (§1) The culture containers used were plastic flowerpots containing loamy sand with approximately 3.0% of humus as the substrate. The seeds of the test plants were sown separately for each species.
(§2) For the pre-emergence treatment, the active ingredients, which had been suspended or emulsified in water, were applied directly after sowing by means of finely distributing nozzles. The containers were irrigated gently to promote germination and growth and subsequently covered with transparent plastic hoods until the test plants had rooted. This cover caused uniform germination of the test plants, unless this had been impaired by the active ingredients. For the post-emergence treatment, the test plants were first grown to a height of 3 to 15 cm, depending on the plant habit, and only then treated with the active ingredients which had been suspended or emulsified in water. For this purpose, the test plants were either sown directly and grown in the same containers, or they were first grown separately as seedlings and transplanted into the test containers a few days prior to treatment.
(§3) Depending on the species, the test plants were kept at 10-25° C. or 20-35° C., respectively. The test period extended over 2 to 4 weeks. During this time, the test plants were tended, and their response to the individual treatments was evaluated.
(§4) Evaluation was carried out using a scale from 0 to 100. 100 means no emergence of the test plants, or complete destruction of at least the aerial moieties, and 0 means no damage, or normal course of growth. A good herbicidal activity is given at values of 70 to 90 and a very good herbicidal activity is given at values of 90 to 100.
(§5) The test plants used in the greenhouse experiments were of the following species: […]

[3] = system: APESV; test: greenhouse experiment, pre-emergence treatment; assay type: in vivo, Apera spica-venti; conditions: pre-emergence method
[4] = system: ECHCG; test: greenhouse experiment, pre-emergence treatment; assay type: in vivo, Echinocloa crus-galli; conditions: pre-emergence method
From the text: as §1, §2, §3, §4, §5

[5] = system: ALOMY; test: greenhouse experiment, post-emergence treatment; assay type: in vivo, Alopercurus myosuroides; conditions: post-emergence method
[6] = system: AMARE; test: greenhouse experiment, pre-emergence treatment; assay type: in vivo, Amaranthus retroflexus; conditions: pre-emergence method
From the text: as §1, §2, §3, §4, §5

[7] = system: AVEFA; test: greenhouse experiment, post-emergence treatment; assay type: in vivo, Avena fatua; conditions: post-emergence method

COC(=O)[C@@H]1CC[C@H](NC(=O)C(OC)C(=O)Nc2cc(Cl)cc(Cl)c2)C1 (relative stereo) [I.108]
herbicidal activity against ABUTH ([1]; application rate 0.500 kg/ha): very good (a very good herbicidal activity is given at values of 90 to 100)
herbicidal activity against AMARE ([2]; application rate 0.500 kg/ha): very good (a very good herbicidal activity is given at values of 90 to 100)
herbicidal activity against APESV ([3]; application rate 0.500 kg/ha): very good (a very good herbicidal activity is given at values of 90 to 100)
herbicidal activity against ECHCG ([4]; application rate 0.500 kg/ha): good (A good herbicidal activity is given at values of 70 to 90)

COC(=O)[C@@H]1C=C[C@H](NC(=O)C(OC)C(=O)Nc2cc(C#N)cc(C#N)c2)C1 (relative stereo) [I.160]
herbicidal activity against ABUTH ([1]; application rate 0.250 kg/ha): very good (a very good herbicidal activity is given at values of 90 to 100)
herbicidal activity against AMARE ([2]; application rate 0.250 kg/ha): good (A good herbicidal activity is given at values of 70 to 90)
herbicidal activity against ALOMY ([5]; application rate 0.250 kg/ha): very good (a very good herbicidal activity is given at values of 90 to 100)

COC(C(=O)Nc1cc(Cl)cc(Cl)c1)C(=O)N[C@H]1C=C[C@@H](C(=O)OC2CC2)C1 (relative stereo) [I.185]
herbicidal activity against ABUTH ([1]; application rate 0.125 kg/ha): very good (a very good herbicidal activity is given at values of 90 to 100)
herbicidal activity against AMARE ([6]; application rate 0.125 kg/ha): very good (a very good herbicidal activity is given at values of 90 to 100)
herbicidal activity against AMARE ([2]; application rate 0.125 kg/ha): very good (a very good herbicidal activity is given at values of 90 to 100)
herbicidal activity against AMARE ([2]; application rate 0.250 kg/ha): very good (a very good herbicidal activity is given at values of 90 to 100)
herbicidal activity against APESV ([3]; application rate 0.125 kg/ha): very good (a very good herbicidal activity is given at values of 90 to 100)
herbicidal activity against ALOMY ([5]; application rate 0.125 kg/ha): very good (a very good herbicidal activity is given at values of 90 to 100)

COC(=O)[C@@H]1C=C[C@H](NC(=O)C(OC)C(=O)Nc2ccc(F)c(C#N)c2)C1 (relative stereo) [I.190]
herbicidal activity against ABUTH ([1]; application rate 0.250 kg/ha): good (A good herbicidal activity is given at values of 70 to 90)
herbicidal activity against AMARE ([6]; application rate 0.250 kg/ha): good (A good herbicidal activity is given at values of 70 to 90)
herbicidal activity against AMARE ([2]; application rate 0.250 kg/ha): very good (a very good herbicidal activity is given at values of 90 to 100)
herbicidal activity against ALOMY ([5]; application rate 0.250 kg/ha): very good (a very good herbicidal activity is given at values of 90 to 100)
herbicidal activity against ECHCG ([4]; application rate 0.250 kg/ha): very good (a very good herbicidal activity is given at values of 90 to 100)

COC(C(=O)NCCC(=O)O)C(=O)Nc1cc(Cl)cc(Cl)c1 (stereo not drawn) [I.2]
herbicidal activity against AVEFA ([7]; application rate 0.500 kg/ha): very good (a very good herbicidal activity is given at values of 90 to 100)
herbicidal activity against ALOMY ([5]; application rate 0.500 kg/ha): very good (a very good herbicidal activity is given at values of 90 to 100)

CCOC(=O)CC(C)NC(=O)C(OC)C(=O)Nc1cc(Cl)cc(Cl)c1 (stereo not drawn) [I.3]
herbicidal activity against AVEFA ([7]; application rate 0.500 kg/ha): very good (a very good herbicidal activity is given at values of 90 to 100)
herbicidal activity against ALOMY ([5]; application rate 0.500 kg/ha): very good (a very good herbicidal activity is given at values of 90 to 100)

COC(C(=O)Nc1cc(Cl)cc(Cl)c1)C(=O)NC(C)CC(=O)O (stereo not drawn) [I.4]
herbicidal activity against AVEFA ([7]; application rate 0.500 kg/ha): very good (a very good herbicidal activity is given at values of 90 to 100)
herbicidal activity against ALOMY ([5]; application rate 0.500 kg/ha): very good (a very good herbicidal activity is given at values of 90 to 100)

CCOC(=O)CC(C)NC(=O)C(OC)C(=O)Nc1cccc(F)c1 (stereo not drawn) [I.17]
herbicidal activity against AVEFA ([7]; application rate 0.125 kg/ha): good (A good herbicidal activity is given at values of 70 to 90)
herbicidal activity against ALOMY ([5]; application rate 0.125 kg/ha): good (A good herbicidal activity is given at values of 70 to 90)

COC(=O)CCCNC(=O)C(OC)C(=O)Nc1cc(F)cc(F)c1 (stereo not drawn) [I.38]
herbicidal activity against AVEFA ([7]; application rate 0.500 kg/ha): very good (a very good herbicidal activity is given at values of 90 to 100)
herbicidal activity against APESV ([3]; application rate 0.500 kg/ha): good (A good herbicidal activity is given at values of 70 to 90)
herbicidal activity against ALOMY ([5]; application rate 0.500 kg/ha): very good (a very good herbicidal activity is given at values of 90 to 100)

COCC(CC(=O)OC)NC(=O)C(OC)C(=O)Nc1cc(F)cc(F)c1 (stereo not drawn) [I.47]
herbicidal activity against ABUTH ([1]; application rate 0.500 kg/ha): very good (a very good herbicidal activity is given at values of 90 to 100)
herbicidal activity against AMARE ([2]; application rate 0.500 kg/ha): good (A good herbicidal activity is given at values of 70 to 90)

COC(=O)C1CC(NC(=O)C(OC)C(=O)Nc2cc(Cl)cc(Cl)c2)C1 (stereo not drawn) [I.51]
herbicidal activity against ABUTH ([1]; application rate 0.500 kg/ha): very good (a very good herbicidal activity is given at values of 90 to 100)
herbicidal activity against APESV ([3]; application rate 0.500 kg/ha): very good (a very good herbicidal activity is given at values of 90 to 100)
herbicidal activity against ECHCG ([4]; application rate 0.500 kg/ha): very good (a very good herbicidal activity is given at values of 90 to 100)

COC(C(=O)Nc1cc(Cl)cc(Cl)c1)C(=O)NC1COC(=O)C1 (stereo not drawn) [I.52]
herbicidal activity against ABUTH ([1]; application rate 0.500 kg/ha): good (A good herbicidal activity is given at values of 70 to 90)
herbicidal activity against APESV ([3]; application rate 0.500 kg/ha): good (A good herbicidal activity is given at values of 70 to 90)

CCOC(=O)CCC(C)NC(=O)C(OC)C(=O)Nc1cc(Cl)cc(Cl)c1 (stereo not drawn) [I.55]
herbicidal activity against ABUTH ([1]; application rate 0.500 kg/ha): good (A good herbicidal activity is given at values of 70 to 90)
herbicidal activity against APESV ([3]; application rate 0.500 kg/ha): very good (a very good herbicidal activity is given at values of 90 to 100)
herbicidal activity against ECHCG ([4]; application rate 0.500 kg/ha): very good (a very good herbicidal activity is given at values of 90 to 100)

COC(=O)C12CC(NC(=O)C(OC)C(=O)Nc3cc(Cl)cc(Cl)c3)(C1)C2 (stereo not drawn) [I.110]
herbicidal activity against AVEFA ([7]; application rate 0.500 kg/ha): very good (a very good herbicidal activity is given at values of 90 to 100)
herbicidal activity against APESV ([3]; application rate 0.500 kg/ha): good (A good herbicidal activity is given at values of 70 to 90)
herbicidal activity against ALOMY ([5]; application rate 0.500 kg/ha): good (A good herbicidal activity is given at values of 70 to 90)

COC(=O)[C@@H]1C=C[C@H](NC(=O)C(OC)C(=O)Nc2cc(Cl)cc(Cl)c2)C1 (stereo partly drawn) [I.123, methyl (1S,4R)-4-[[3-(3,5-dichloroanilino)-2-methoxy-3-oxo-propanoyl]amino]cyclopent-2-ene-1-carboxylate]
herbicidal activity against AMARE ([2]; application rate 0.500 kg/ha): very good (a very good herbicidal activity is given at values of 90 to 100)
herbicidal activity against APESV ([3]; application rate 0.500 kg/ha): very good (a very good herbicidal activity is given at values of 90 to 100)
herbicidal activity against ECHCG ([4]; application rate 0.500 kg/ha): very good (a very good herbicidal activity is given at values of 90 to 100)

COC(=O)[C@@H]1C=C[C@H](NC(=O)C(OC)C(=O)Nc2cc(F)cc(F)c2)C1 (stereo partly drawn) [I.124]
herbicidal activity against AMARE ([2]; application rate 0.500 kg/ha): very good (a very good herbicidal activity is given at values of 90 to 100)
herbicidal activity against APESV ([3]; application rate 0.500 kg/ha): very good (a very good herbicidal activity is given at values of 90 to 100)
herbicidal activity against ECHCG ([4]; application rate 0.500 kg/ha): very good (a very good herbicidal activity is given at values of 90 to 100)

COC(C(=O)Nc1cc(Cl)cc(Cl)c1)C(=O)N[C@H]1C=C[C@@H](C(=O)OC(C)C)C1 (stereo partly drawn) [I.159]
herbicidal activity against ABUTH ([1]; application rate 0.125 kg/ha): very good (a very good herbicidal activity is given at values of 90 to 100)
herbicidal activity against AMARE ([6]; application rate 0.125 kg/ha): very good (a very good herbicidal activity is given at values of 90 to 100)
herbicidal activity against AMARE ([2]; application rate 0.125 kg/ha): very good (a very good herbicidal activity is given at values of 90 to 100)
herbicidal activity against ALOMY ([5]; application rate 0.125 kg/ha): very good (a very good herbicidal activity is given at values of 90 to 100)

COC(=O)C1C=CC(NC(=O)C(OC(F)F)C(=O)Nc2cc(Cl)cc(Cl)c2)C1 (stereo not drawn) [I.173]
herbicidal activity against ABUTH ([1]; application rate 0.250 kg/ha): very good (a very good herbicidal activity is given at values of 90 to 100)
herbicidal activity against AVEFA ([7]; application rate 0.250 kg/ha): very good (a very good herbicidal activity is given at values of 90 to 100)
herbicidal activity against APESV ([3]; application rate 0.250 kg/ha): good (A good herbicidal activity is given at values of 70 to 90)
herbicidal activity against ALOMY ([5]; application rate 0.250 kg/ha): very good (a very good herbicidal activity is given at values of 90 to 100)

COC(=O)CC(C)NC(=O)C(OC)C(=O)Nc1cc(Cl)ccc1OC (stereo not drawn) [I.204]
herbicidal activity against ABUTH ([1]; application rate 0.500 kg/ha): good (A good herbicidal activity is given at values of 70 to 90)
herbicidal activity against AMARE ([2]; application rate 0.500 kg/ha): good (A good herbicidal activity is given at values of 70 to 90)

COC(=O)CC(C)NC(=O)C(OC)C(=O)Nc1cccc(C#N)c1 (stereo not drawn) [I.205]
herbicidal activity against ABUTH ([1]; application rate 0.500 kg/ha): very good (a very good herbicidal activity is given at values of 90 to 100)
herbicidal activity against AMARE ([2]; application rate 0.500 kg/ha): good (A good herbicidal activity is given at values of 70 to 90)
herbicidal activity against APESV ([3]; application rate 0.500 kg/ha): very good (a very good herbicidal activity is given at values of 90 to 100)
herbicidal activity against ALOMY ([5]; application rate 0.500 kg/ha): very good (a very good herbicidal activity is given at values of 90 to 100)
herbicidal activity against ECHCG ([4]; application rate 0.500 kg/ha): good (A good herbicidal activity is given at values of 70 to 90)

COC(=O)CC(C)NC(=O)C(OC(F)(F)F)C(=O)Nc1cc(Cl)cc(Cl)c1 (stereo not drawn) [I.207]
herbicidal activity against APESV ([3]; application rate 0.500 kg/ha): very good (a very good herbicidal activity is given at values of 90 to 100)
herbicidal activity against ECHCG ([4]; application rate 0.500 kg/ha): good (A good herbicidal activity is given at values of 70 to 90)

COC(=O)[C@@H]1C=C[C@H](NC(=O)C(OC)C(=O)Nc2cccc(OC(F)(F)F)c2)C1 (stereo partly drawn) [compound 198]
herbicidal activity against AMARE ([6]; application rate 0.250 kg/ha): very good (a very good herbicidal activity is given at values of 90 to 100)
